For two molecules, binding results are on record in patent publication EP4617284A1 (Shanghai Novamab Biopharmaceuticals Co., Ltd., dated 2025).

The chains behind the UniProt entries cited, without tags or fusion partners. Where a name states a change or a piece, a line headed by the entry shows the natural chain unless it says otherwise. A line that says so, or that is headed by a name, gives the form on record, which may keep a tag or linker.
cynomolgus monkey IL-13 (Q0PW92, form named): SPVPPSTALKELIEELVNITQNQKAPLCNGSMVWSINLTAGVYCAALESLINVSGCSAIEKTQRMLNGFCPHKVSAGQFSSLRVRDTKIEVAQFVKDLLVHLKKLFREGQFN

Results are given in words; binding and its absence hold for the method and conditions named. Some entries that bind do so weakly or less than the wild type.

In assay [1] the target is cynomolgus monkey IL-13 (cynomolgus monkey) (UniProt Q0PW92). The experiment in a line: ELISA.
For assay [2] the target is unchanged. The experiment in a line: ELISA, IL-13 coated on the plate.

B1: MY9219 (bispecific antibody)
chain: EVQLQESGGGLVEPGGSLRLSCVASGFTFQHYAMSWVRQAPGKGLEWVSSISMVGGGTSYADSVKGRFTMSRDNAKNTLYLQLNSLKSEDTAMYYCVRGWHPDVPRPLGQGTLVTVSSGGGGSGGGGSGGGGSGGGGSEVQLLESGGGLVQPGGSLRLSCAASGFTFSDYTMTWVRQAPGKGLEWVSTVNPDGDSTFYRDSVKGRFTISRDNAKNTLYLQLSSLKTEDTAMYYCTKASLITWPQSPRGQGTLVTVSSGGGGSGGGGSGGGGSGGGGSEVQLLESGGGLVQPGESLRLSCEVSGHTHTNYCMGWFRQAPGKGLEGVAAIDTDGSTTYADSVKGRFTISKDNAKNTLYLQMNSLKPEDTAMYYCMAEDFRDEYAPEPRLSSGGYCSIGYGMDYWGKGTLVTVSSA
notes: Trivalent long-acting nanobody: two anti-IL-13 VHH and one anti-HSA VHH in one chain; also called HSA HuNb3-11-MY9286-GS20-MY9293-GS20
As for B1, the binding result in assay [1] and in assay [2] was “binds” throughout.

B2: MY9217 (bispecific antibody)
chain: EVQLLESGGGLVQPGGSLRLSCAASGFTFSDYTMTWVRQAPGKGLEWVSTVNPDGDSTFYRDSVKGRFTISRDNAKNTLYLQLSSLKTEDTAMYYCTKASLITWPQSPRGQGTLVTVSSGGGGSGGGGSGGGGSGGGGSEVQLQESGGGLVEPGGSLRLSCVASGFTFQHYAMSWVRQAPGKGLEWVSSISMVGGGTSYADSVKGRFTMSRDNAKNTLYLQLNSLKSEDTAMYYCVRGWHPDVPRPLGQGTLVTVSSGGGGSGGGGSGGGGSGGGGSEVQLLESGGGLVQPGESLRLSCEVSGHTHTNYCMGWFRQAPGKGLEGVAAIDTDGSTTYADSVKGRFTISKDNAKNTLYLQMNSLKPEDTAMYYCMAEDFRDEYAPEPRLSSGGYCSIGYGMDYWGKGTLVTVSSA
notes: Trivalent long-acting nanobody: two anti-IL-13 VHH and one anti-HSA VHH in one chain; also called MY9286-GS20-HSA HuNb3-11-GS20-MY9293
Turning to B2, the binding entry in assay [1] and in assay [2] was “binds” in each case.
